From article doi:10.1101/2022.06.07.495180
No constants are given. Whether binding was seen depends on the method and setting. In cells and extracts the contact can be indirect. Some binding calls cover weakened binding; strength is not graded here. Values belong to the molecule of their own block, whether it stands above or below them.

Sequences of proteins named here, by UniProt entry; tags and fusion partners are left off.
UniProt P06239: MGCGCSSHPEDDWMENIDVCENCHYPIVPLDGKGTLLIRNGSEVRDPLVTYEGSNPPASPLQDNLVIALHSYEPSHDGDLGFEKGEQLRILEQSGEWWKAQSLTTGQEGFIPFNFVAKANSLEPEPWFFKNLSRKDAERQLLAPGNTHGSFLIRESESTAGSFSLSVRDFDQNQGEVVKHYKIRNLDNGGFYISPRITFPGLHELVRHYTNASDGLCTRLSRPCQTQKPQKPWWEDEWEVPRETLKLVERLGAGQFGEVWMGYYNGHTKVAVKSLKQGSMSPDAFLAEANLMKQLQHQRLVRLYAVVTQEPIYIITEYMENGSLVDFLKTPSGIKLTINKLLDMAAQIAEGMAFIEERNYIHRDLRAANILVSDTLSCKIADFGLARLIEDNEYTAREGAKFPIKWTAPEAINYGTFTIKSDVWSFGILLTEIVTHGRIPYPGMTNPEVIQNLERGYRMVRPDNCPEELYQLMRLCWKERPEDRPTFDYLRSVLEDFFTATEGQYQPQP
UniProt Q9UKE5: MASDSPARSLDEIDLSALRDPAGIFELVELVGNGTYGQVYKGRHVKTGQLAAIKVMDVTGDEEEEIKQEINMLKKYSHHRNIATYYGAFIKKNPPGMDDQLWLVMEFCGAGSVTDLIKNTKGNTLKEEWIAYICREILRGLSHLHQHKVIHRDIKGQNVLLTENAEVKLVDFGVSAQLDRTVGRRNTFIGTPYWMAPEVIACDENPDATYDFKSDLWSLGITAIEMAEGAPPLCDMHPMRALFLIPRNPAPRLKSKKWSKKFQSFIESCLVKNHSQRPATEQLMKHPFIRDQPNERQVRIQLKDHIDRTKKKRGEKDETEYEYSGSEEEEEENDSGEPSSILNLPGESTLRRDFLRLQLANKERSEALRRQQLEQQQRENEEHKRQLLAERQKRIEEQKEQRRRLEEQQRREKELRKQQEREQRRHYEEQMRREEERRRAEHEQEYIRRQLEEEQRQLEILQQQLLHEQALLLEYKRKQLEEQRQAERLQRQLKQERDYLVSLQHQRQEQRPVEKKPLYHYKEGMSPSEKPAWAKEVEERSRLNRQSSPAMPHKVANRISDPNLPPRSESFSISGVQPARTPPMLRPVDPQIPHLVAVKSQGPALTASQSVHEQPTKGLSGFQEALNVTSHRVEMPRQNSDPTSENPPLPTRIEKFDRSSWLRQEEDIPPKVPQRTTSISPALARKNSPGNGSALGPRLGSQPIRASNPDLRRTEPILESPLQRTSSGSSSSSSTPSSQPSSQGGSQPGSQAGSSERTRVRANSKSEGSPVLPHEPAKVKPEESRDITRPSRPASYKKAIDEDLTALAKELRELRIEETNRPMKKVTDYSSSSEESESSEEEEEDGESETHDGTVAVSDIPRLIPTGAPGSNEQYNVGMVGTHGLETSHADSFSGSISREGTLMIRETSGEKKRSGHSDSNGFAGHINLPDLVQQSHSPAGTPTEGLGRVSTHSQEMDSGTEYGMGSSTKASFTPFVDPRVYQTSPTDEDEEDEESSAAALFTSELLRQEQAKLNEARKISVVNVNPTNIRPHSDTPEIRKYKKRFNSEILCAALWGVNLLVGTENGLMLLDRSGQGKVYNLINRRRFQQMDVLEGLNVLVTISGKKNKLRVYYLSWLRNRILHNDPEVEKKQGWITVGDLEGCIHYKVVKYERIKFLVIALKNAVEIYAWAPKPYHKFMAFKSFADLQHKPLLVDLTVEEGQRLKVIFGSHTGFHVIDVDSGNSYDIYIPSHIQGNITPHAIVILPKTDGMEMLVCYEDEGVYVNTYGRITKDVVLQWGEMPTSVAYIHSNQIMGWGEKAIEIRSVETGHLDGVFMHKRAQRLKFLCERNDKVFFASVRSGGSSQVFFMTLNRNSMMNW
UniProt P43403: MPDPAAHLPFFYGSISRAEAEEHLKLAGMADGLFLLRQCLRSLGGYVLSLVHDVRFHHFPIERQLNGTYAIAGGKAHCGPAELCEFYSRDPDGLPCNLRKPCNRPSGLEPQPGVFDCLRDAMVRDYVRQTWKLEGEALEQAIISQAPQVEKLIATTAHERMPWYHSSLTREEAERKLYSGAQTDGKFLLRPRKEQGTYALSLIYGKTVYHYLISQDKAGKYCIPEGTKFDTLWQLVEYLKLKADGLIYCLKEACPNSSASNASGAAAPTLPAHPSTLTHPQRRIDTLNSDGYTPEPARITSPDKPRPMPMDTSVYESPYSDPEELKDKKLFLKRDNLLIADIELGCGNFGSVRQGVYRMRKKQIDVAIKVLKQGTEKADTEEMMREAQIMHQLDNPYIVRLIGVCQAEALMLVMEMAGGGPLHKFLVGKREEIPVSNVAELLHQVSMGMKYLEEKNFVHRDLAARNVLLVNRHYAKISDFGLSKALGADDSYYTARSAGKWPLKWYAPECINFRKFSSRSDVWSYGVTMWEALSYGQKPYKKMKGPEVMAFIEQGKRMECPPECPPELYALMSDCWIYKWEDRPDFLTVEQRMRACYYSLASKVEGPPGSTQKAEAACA
UniProt Q13489: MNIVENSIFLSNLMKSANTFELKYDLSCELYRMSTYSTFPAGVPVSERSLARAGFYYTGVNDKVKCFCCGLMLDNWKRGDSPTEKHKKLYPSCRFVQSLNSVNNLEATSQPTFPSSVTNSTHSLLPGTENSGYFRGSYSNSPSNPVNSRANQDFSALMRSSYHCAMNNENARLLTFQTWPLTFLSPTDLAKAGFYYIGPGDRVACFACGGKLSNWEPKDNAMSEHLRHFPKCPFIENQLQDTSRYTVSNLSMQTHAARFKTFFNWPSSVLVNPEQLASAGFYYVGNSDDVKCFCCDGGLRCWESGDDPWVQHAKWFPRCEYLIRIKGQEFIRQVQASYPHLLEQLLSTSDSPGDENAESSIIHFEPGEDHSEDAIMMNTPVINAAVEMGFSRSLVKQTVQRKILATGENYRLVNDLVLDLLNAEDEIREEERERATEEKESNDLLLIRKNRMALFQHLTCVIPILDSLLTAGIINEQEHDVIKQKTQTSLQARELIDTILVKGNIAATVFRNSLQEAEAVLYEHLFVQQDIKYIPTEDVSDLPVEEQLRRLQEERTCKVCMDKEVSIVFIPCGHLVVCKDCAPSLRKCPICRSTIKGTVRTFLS

Assays:
Test in all cases: co-IP
[1] = biological target: LCK (human (endogenous in primary T cells)) (UniProt P06239)
[2] = biological target: T1, TRAF1 (human (endogenous in primary T cells)) (UniProt Q13077)
T1 sequence: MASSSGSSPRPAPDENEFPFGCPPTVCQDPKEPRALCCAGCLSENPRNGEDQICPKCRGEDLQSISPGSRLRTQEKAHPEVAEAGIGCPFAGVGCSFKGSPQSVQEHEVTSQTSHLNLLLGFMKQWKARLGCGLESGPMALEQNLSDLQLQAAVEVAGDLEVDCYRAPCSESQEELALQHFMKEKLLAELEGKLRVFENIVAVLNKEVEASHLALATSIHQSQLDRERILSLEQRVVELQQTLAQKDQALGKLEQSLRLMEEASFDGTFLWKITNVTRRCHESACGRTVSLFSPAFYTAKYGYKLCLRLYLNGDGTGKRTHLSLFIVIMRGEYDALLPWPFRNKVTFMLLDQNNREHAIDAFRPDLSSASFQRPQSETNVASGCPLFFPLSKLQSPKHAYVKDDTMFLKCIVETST

[3] = biological target: TNIK (human (endogenous in primary T cells)) (UniProt Q9UKE5)
[4] = biological target: T2, SLP76 (human (endogenous in primary T cells)) (UniProt Q13094)
T2 sequence: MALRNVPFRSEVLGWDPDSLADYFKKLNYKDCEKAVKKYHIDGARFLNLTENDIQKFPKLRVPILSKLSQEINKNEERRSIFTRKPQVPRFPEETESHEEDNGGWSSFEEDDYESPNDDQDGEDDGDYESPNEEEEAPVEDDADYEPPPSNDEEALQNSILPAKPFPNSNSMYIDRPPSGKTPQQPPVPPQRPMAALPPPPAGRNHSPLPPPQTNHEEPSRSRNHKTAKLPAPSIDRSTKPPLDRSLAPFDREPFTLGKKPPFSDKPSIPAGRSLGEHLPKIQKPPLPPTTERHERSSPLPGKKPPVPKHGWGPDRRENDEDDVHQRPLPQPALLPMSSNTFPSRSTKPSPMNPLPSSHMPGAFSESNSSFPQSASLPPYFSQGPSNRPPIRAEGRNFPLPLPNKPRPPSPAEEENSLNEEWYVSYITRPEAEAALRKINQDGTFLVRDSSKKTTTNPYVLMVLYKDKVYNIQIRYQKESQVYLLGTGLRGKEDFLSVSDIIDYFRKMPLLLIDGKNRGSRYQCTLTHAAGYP

binding [1]: binds
Molecule: ZAP70 (from UniProt P43403 1-619)

binding [2]: binds
Molecule: BIRC3 (from UniProt Q13489 1-604)

binding [3]: binds
B1: GRAP2 (protein, UniProt O75791 1-330)
chain: MEAVAKFDFTASGEDELSFHTGDVLKILSNQEEWFKAELGSQEGYVPKNFIDIQFPKWFHEGLSRHQAENLLMGKEVGFFIIRASQSSPGDFSISVRHEDDVQHFKVMRDNKGNYFLWTEKFPSLNKLVDYYRTNSISRQKQIFLRDRTREDQGHRGNSLDRRSQGGPHLSGAVGEEIRPSMNRKLSDHPPTLPLQQHQHQPQPPQYAPAPQQLQQPPQQRYLQHHHFHQERRGGSLDINDGHCGTGLGSEMNAALMHRRHTDPVQLQAAGRVRWARALYDFEALEDDELGFHSGEVVEVLDSSNPSWWTGRLHNKLGLFPANYVAPMTR

binding [4]: binds
B2: LAT (protein, UniProt O43561 1-262)
chain: MEEAILVPCVLGLLLLPILAMLMALCVHCHRLPGSYDSTSSDSLYPRGIQFKRPHTVAPWPPAYPPVTSYPPLSQPDLLPIPRSPQPLGGSHRTPSSRRDSDGANSVASYENEGASGIRGAQAGWGVWGPSWTRLTPVSLPPEPACEDADEDEDDYHNPGYLVVLPDSTPATSTAAPSAPALSTPGIRDSAFSMESIDDYVNVPESGESAEASLDGSREYVNVSQELHPGAAKTEPAALSSQEAEEVEEEGAPDYENLQELN

binding [3]: binds
B3: TAK1 (protein, UniProt O43318 1-606)
chain: MSTASAASSSSSSSAGEMIEAPSQVLNFEEIDYKEIEVEEVVGRGAFGVVCKAKWRAKDVAIKQIESESERKAFIVELRQLSRVNHPNIVKLYGACLNPVCLVMEYAEGGSLYNVLHGAEPLPYYTAAHAMSWCLQCSQGVAYLHSMQPKALIHRDLKPPNLLLVAGGTVLKICDFGTACDIQTHMTNNKGSAAWMAPEVFEGSNYSEKCDVFSWGIILWEVITRRKPFDEIGGPAFRIMWAVHNGTRPPLIKNLPKPIESLMTRCWSKDPSQRPSMEEIVKIMTHLMRYFPGADEPLQYPCQYSDEGQSNSATSTGSFMDIASTNTSNKSDTNMEQVPATNDTIKRLESKLLKNQAKQQSESGRLSLGASRGSSVESLPPTSEGKRMSADMSEIEARIAATTAYSKPKRGHRKTASFGNILDVPEIVISGNGQPRRRSIQDLTVTGTEPGQVSSRSSSPSVRMITTSGPTSEKPTRSHPWTPDDSTDTNGSDNSIPMAYLTLDHQLQPLAPCPNSKESMAVFEQHCKMAQEYMKVQTEIALLLQRKQELVAELDQDEKDQQNTSRLVQEHKKLLDENKSLSTYYQQCKKQLEVIRSQQQKRQGTS
